Measurements published in patent US10030027B2, “Soluble guanylate cyclase stimulators” (MERCK SHARP & DOHME CORP., priority 2015, dated 2018).
The match of structure and compound is tentative.

Target: human recombinant sGC enzyme (Homo sapiens (Human), UniProt Q02108+Q02153)
Experiment: Size Exclusion Chromatography (SEC) competition binding assay using [3H] Ex-77B as the radioligand
Details: [3H] Ex-77B radioligand, 24 hours at 37° C.

CC1(C2CCC(CCC(=O)O)CC2)C(=O)Nc2nc(-c3nn(Cc4cccc(F)c4)c4cc(Cl)ccc34)nc(N)c21 (single isomer, unassigned) [263BA]
Ki: 0.127 nM
